In this assay the target is BD-bT1 (bovine) (UniProt Q6T8E9). Briefly: two-hybrid; mammalian two-hybrid in HeLa cells: Tat fused to the mouse NF-κB AD, partner fused to the GAL4 BD, 500 ng of each plasmid and 250 ng pFR-luc; luciferase read-out.

Chains of the proteins cited; added tags and fusions are not shown. Residues count along the entry.
UniProt Q6T8E9, residues 1-272: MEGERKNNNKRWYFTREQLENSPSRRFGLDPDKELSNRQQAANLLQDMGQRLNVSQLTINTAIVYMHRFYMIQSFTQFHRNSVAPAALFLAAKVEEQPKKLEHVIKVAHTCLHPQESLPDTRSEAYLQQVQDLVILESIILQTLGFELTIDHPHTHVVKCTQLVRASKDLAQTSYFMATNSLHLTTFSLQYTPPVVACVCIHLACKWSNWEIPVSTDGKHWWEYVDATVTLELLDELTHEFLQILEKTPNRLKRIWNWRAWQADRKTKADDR
UniProt Q82854, residues 1-67: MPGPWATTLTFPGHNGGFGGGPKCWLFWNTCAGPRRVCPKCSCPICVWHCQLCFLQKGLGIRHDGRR

Results are given in words; binding and its absence hold for the method and conditions named. Some results given as binding are weak or reduced against the parent protein; the word gives no strength.

Regarding “jAD fused to NF-κB AD (from UniProt Q82854 1-67) (domain or fragment)”, the binding result was “binds”.
